PubChem BioAssay AID504793, Drosophila RNAi Screening Center – 2011
Screen: 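Genes required for cells to halt at G2/M after double-strand DNA breaks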 (primary screen). System: Drosophila S2R+ cells. Reagents: long dsRNA against Drosophila genes, about 0.25 µg dsRNA per well. Time to read-out: 4 days of dsRNA, then 4 hours of drug before read-out. Conditions: doxorubicin 0.5 µM for 4 hours to cause double-strand breaks, in cells also given a low, harmless dose of dsRNA against nbs to sensitise the assay. Detection: 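Per-well count of mitotic cells stained for phospho-histone H3 after doxorubicin exposure, used as mitotic index; counts are raw and not normalised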. Scale: mitotic cells: higher = more cells in mitosis, weaker G2 arrest. Hit rule: 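Genes are called active only when high mitotic counts were reproduced with independent dsRNAs and mitosis was checked for delay without damage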. Meaning of the calls: active = confirmed in follow-up tests; inactive = not confirmed.
The screen tested about 23,000 reagents; this is an unselected part of those that have a named target and a result. Of all reagents, 62 (0.27%) got an active call. 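Calls come from follow-up tests whose scores are not deposited, so confirmed genes may have low counts here; counts are not normalised per plate.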 Raw values are not corrected between plates. Entries without a mark were called inactive. Reagents against one gene are numbered here. A plus sign joins genes that one reagent is predicted to hit. No sequences are given here.

The opening 2 entries as a preview:
ninaG
- mitotic cells, replicate 1: 4

CG31710 #1
- mitotic cells, replicate 1: 3

Main list, repeating the preview:
ninaG
- mitotic cells, replicate 1: 4

CG31710 #1
- mitotic cells, replicate 1: 3

CG31710 #2
- mitotic cells, replicate 1: 7

CG31710 #3
- mitotic cells, replicate 1: 4

His1:CG33816 + His1:CG33828 + His1:CG33819 + 21 more
- mitotic cells, replicate 1: 9

STUB1
- mitotic cells, replicate 1: 7

Apc
- mitotic cells, replicate 1: 11

Cyt-c-d #1
- mitotic cells, replicate 1: 8

Cyt-c-d #2
- mitotic cells, replicate 1: 7

dj-1beta #1
- mitotic cells, replicate 1: 9

dj-1beta #2
- mitotic cells, replicate 1: 5

CG18636 #1
- mitotic cells, replicate 1: 5

CG18636 #2
- mitotic cells, replicate 1: 4

Grp170 #1
- mitotic cells, replicate 1: 6

Grp170 #2
- mitotic cells, replicate 1: 7

hebe #1
- mitotic cells, replicate 1: 4

hebe #2
- mitotic cells, replicate 1: 15

hebe #3
- mitotic cells, replicate 1: 15

hebe #4
- mitotic cells, replicate 1: 10

CG15207 (retired record) #1
- mitotic cells, replicate 1: 10

CG15207 (retired record) #2
- mitotic cells, replicate 1: 3

CG15210 #1
- mitotic cells, replicate 1: 5

CG15210 #2
- mitotic cells, replicate 1: 1

Unc-115a #1
- mitotic cells, replicate 1: 2

Unc-115a #2
- mitotic cells, replicate 1: 6

CG13197
- mitotic cells, replicate 1: 8

dmpd
- mitotic cells, replicate 1: 7

ItgaPS5 #1
- mitotic cells, replicate 1: 2

ItgaPS5 #2
- mitotic cells, replicate 1: 5

Pu #1
- mitotic cells, replicate 1: 10

Pu #2
- mitotic cells, replicate 1: 4

Lmpt #1
- mitotic cells, replicate 1: 11

Lmpt #2
- mitotic cells, replicate 1: 3

Lmpt #3
- mitotic cells, replicate 1: 12

Lmpt #4
- mitotic cells, replicate 1: 3

Lmpt #5
- mitotic cells, replicate 1: 2

Lmpt #6
- mitotic cells, replicate 1: 14

Lmpt #7
- mitotic cells, replicate 1: 6

Lmpt #8
- mitotic cells, replicate 1: 3

Lmpt #9
- mitotic cells, replicate 1: 7

Lmpt #10
- mitotic cells, replicate 1: 4

Ugt37D1 #1
- mitotic cells, replicate 1: 3

Ugt37D1 #2
- mitotic cells, replicate 1: 3
